Results are given in words; binding and its absence hold for the method and conditions named. A result given as binding can be weak or reduced; the word gives no strength. For some of these results: Binding seen in cells or lysates may run through a third protein.
B1: MTERF4 (protein, UniProt Q7Z6M4 43-381)
chain: LTTASNGGVIEELSCVRSNNYVQEPECRRNLVQCLLEKQGTPVVQGSLELERVMSSLLDMGFSNAHINELLSVRRGASLQQLLDIISEFILLGLNPEPVCVVLKKSPQLLKLPIMQMRKRSSYLQKLGLGEGKLKRVLYCCPEIFTMRQQDINDTVRLLKEKCLFTVQQVTKILHSCPSVLREDLGQLEYKFQYAYFRMGIKHPDIVKSEYLQYSLTKIKQRHIYLERLGRYQTPDKKGQTQIPNPLLKDILRVSEAEFLARTACTSVEEFQVFKKLLAREEEESESSTSDDKRASLDEDEDDDDEEDNDEDDNDEDDDDEDDDEAEDNDEDEDDDEEE
B2: MRM2 (enzyme, UniProt Q9UI43 19-246)
chain: TVGSRCKNRTGAEHLWLTRHLRDPFVKAAKVESYRCRSAFKLLEVNERHQILRPGLRVLDCGAAPGAWSQVAVQKVNAAGTDPSSPVGFVLGVDLLHIFPLEGATFLCPADVTDPRTSQRILEVLPGRRADVILSDMAPNATGFRDLDHDRLISLCLTLLSVTPDILQPGGTFLCKTWAGSQSRRLQRRLTEEFQNVRIIKPEASRKESSEVYFLATQYHGRKGTVKQ
B3: MTG2 (enzyme, UniProt Q9H4K7 1-406)
chain: MAPARCFSARLRTVFQGVGHWALSTWAGLKPSRLLPQRASPRLLSVGRADLAKHQELPGKKLLSEKKLKRYFVDYRRVLVCGGNGGAGASCFHSEPRKEFGGPDGGDGGNGGHVILRVDQQVKSLSSVLSRYQGFSGEDGGSKNCFGRSGAVLYIRVPVGTLVKEGGRVVADLSCVGDEYIAALGGAGGKGNRFFLANNNRAPVTCTPGQPGQQRVLHLELKTVAHAGMVGFPNAGKSSLLRAISNARPAVASYPFTTLKPHVGIVHYEGHLQIAVADIPGIIRGAHQNRGLGSAFLRHIERCRFLLFVVDLSQPEPWTQVDDLKYELEMYEKGLSARPHAIVANKIDLPEAQANLSQLRDHLGQEVIVLSALTGENLEQLLLHLKVLYDAYAEAELGQGRQPLRW

Experiments:
MTG1-3xFLAG (human) = test: co-IP; anti-FLAG M2 affinity gel on mitochondrial lysate (1.6% Triton X-100) of HEK 293 EBNA cells expressing MTG1-3xFLAG; eluted with 3xFLAG peptide and pelleted; what came with the bait was identified by cryo-EM
[1] = molecular target: uL11m (human (endogenous in HEK 293 EBNA)); test: cryo-EM structure; mt-LSU assembly intermediates affinity-purified through MTG1-3xFLAG from HEK 293 EBNA mitochondria; states A, B, C at 2.9, 3.1, 3.1 Å; 20 mM HEPES-KOH pH 7.6, 100 mM KCl, 20 mM MgCl2, 1 mM DTT

Row | Binder | binding (MTG1-3xFLAG (human)) | binding [1]
1 | B1 | binds | –
2 | B2 | binds | –
3 | B3 | binds | binds

— article PMC8208988
